Paper PMC10174586
Results are given in words; binding and its absence hold for the method and conditions named. Binding seen in cells or lysates may run through a third protein. Some results given as binding are weak or reduced against the parent protein; the word gives no strength.

Amino acid sequences for entries named in this document (tags omitted).
UniProt Q9H9Y6: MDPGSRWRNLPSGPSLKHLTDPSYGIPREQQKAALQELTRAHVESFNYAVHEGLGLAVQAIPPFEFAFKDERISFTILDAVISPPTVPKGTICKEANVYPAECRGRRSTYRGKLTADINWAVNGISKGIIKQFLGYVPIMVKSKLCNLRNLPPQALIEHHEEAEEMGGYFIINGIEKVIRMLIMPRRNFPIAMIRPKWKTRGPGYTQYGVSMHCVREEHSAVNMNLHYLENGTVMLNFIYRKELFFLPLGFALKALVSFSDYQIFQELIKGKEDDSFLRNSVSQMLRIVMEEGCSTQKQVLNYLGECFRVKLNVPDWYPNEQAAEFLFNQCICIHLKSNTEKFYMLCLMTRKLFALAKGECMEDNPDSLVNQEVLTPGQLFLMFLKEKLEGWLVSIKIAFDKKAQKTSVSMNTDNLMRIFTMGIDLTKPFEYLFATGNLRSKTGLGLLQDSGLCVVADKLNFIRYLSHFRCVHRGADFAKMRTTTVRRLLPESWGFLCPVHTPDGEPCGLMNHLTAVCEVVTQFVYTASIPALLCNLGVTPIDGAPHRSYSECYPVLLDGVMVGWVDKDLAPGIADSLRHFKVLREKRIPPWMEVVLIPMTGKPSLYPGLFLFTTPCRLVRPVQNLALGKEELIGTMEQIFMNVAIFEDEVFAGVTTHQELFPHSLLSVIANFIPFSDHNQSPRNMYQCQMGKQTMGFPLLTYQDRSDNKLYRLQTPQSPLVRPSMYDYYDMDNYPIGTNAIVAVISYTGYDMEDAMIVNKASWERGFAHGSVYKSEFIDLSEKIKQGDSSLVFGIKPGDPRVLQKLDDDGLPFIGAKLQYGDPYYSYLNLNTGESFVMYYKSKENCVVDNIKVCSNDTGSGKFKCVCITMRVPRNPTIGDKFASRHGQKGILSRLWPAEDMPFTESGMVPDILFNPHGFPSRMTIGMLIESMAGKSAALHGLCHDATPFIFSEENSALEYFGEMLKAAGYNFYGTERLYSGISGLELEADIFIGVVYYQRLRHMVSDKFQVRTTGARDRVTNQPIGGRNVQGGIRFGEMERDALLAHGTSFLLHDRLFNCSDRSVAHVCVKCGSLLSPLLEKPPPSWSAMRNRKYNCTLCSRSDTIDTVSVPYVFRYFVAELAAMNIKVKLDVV
UniProt O95602: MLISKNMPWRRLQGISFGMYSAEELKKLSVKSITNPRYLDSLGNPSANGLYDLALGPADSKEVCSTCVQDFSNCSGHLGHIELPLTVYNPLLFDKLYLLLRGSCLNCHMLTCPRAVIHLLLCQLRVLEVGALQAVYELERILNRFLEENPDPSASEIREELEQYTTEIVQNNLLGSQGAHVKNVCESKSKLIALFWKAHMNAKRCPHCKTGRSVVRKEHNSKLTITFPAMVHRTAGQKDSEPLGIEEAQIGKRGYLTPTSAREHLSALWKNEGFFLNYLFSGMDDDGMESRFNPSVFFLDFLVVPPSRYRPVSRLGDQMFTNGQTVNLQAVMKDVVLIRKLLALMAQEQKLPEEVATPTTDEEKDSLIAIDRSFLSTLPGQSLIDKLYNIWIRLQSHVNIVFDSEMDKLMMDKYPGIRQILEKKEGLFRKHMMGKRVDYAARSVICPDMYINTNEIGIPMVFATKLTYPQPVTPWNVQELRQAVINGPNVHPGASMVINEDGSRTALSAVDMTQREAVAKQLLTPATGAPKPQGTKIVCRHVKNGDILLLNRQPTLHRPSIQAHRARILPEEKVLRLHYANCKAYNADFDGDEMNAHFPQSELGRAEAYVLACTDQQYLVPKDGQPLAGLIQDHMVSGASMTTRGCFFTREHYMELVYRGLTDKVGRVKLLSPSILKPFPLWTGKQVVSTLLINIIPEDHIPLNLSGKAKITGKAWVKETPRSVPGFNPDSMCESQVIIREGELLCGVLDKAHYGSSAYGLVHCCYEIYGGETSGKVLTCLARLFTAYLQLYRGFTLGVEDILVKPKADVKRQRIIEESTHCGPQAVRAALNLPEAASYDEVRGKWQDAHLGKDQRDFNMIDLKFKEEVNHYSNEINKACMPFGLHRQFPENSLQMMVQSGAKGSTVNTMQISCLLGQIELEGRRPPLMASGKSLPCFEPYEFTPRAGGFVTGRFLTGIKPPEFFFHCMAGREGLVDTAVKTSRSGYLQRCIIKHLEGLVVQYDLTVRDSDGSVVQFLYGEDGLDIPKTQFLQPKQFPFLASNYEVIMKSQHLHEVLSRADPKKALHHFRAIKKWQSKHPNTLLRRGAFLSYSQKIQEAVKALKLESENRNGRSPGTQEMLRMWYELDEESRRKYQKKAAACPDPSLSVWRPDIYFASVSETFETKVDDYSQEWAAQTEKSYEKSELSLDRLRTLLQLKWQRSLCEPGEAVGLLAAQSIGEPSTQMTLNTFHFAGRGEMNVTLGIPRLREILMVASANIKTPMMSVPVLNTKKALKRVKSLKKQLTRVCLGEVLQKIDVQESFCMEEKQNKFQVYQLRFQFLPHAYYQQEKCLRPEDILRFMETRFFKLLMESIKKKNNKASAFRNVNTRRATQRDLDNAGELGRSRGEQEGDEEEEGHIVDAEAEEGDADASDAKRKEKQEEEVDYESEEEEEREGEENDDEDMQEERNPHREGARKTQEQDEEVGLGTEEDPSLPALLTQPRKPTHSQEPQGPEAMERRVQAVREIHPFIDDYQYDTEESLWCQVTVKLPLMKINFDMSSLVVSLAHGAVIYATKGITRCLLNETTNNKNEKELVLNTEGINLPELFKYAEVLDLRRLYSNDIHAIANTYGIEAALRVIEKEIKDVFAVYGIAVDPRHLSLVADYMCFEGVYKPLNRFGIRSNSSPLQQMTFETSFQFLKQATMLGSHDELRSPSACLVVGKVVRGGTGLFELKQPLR

Experiments:
[1] = target: RNA polymerase I subunit RPA135 (human (endogenous in A375)) (UniProt Q9H9Y6); assay: co-IP; endogenous proteins from A375 lysates (1 mg, RIPA buffer), precipitated with RPA194 (C-1) or RPA135 (H-15) antibodies or control IgG on Protein G Dynabeads, 5 washes with RIPA, reciprocal immunoblotting; cells transfected with Ctrl siRNA or RPA12 siRNA and treated with BMH-21 (1 uM) for 3 hours
[2] = target: RNA polymerase I catalytic subunit RPA194 (human (endogenous in A375)) (UniProt O95602); assay: as above

“RNA polymerase I catalytic subunit RPA194 (from UniProt O95602 1-1720)” was tested, and the binding [1] was “binds”.
With “RNA polymerase I subunit RPA135 (from UniProt Q9H9Y6 1-1135)” the binding [2] was “binds”.
